Test results: the supplement of paper PMC10849652
The list shows a part of the results.

The chains behind the UniProt entries cited, without tags or fusion partners. Where a name states a change or a piece, a line headed by the entry shows the natural chain unless it says otherwise.
UniProt Q96N46: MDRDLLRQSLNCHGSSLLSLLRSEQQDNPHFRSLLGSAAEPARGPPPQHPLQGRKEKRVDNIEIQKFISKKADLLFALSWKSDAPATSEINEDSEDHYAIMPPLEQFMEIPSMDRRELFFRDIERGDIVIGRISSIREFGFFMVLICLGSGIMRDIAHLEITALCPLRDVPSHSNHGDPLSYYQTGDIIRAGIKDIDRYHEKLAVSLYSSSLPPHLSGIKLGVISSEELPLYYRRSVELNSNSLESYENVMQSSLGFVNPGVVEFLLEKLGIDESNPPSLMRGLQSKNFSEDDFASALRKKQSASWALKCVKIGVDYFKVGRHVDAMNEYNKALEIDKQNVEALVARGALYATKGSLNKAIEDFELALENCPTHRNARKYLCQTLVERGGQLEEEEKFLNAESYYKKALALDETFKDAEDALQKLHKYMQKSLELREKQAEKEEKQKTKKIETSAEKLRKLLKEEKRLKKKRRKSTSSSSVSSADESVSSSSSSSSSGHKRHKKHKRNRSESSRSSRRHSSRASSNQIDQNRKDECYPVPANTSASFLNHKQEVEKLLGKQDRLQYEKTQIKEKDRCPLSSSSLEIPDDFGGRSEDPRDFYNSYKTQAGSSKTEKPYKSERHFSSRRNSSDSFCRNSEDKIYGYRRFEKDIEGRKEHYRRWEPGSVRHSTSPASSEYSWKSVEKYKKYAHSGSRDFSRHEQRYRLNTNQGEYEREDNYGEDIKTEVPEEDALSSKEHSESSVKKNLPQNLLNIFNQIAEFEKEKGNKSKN
UniProt P04350, whole entry, looked up: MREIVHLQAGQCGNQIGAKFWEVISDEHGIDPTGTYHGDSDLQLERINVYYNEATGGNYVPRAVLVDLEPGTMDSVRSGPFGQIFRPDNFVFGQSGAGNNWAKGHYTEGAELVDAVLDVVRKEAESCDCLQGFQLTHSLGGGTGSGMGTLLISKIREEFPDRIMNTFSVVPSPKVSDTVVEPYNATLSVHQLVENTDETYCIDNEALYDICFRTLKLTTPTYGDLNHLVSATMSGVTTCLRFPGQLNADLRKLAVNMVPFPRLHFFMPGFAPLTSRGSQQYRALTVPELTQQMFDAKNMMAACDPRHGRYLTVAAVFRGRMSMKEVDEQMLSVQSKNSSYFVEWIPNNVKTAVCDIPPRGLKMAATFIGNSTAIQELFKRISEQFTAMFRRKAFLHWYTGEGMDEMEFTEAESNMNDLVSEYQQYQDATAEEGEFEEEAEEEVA
UniProt Q2NL82: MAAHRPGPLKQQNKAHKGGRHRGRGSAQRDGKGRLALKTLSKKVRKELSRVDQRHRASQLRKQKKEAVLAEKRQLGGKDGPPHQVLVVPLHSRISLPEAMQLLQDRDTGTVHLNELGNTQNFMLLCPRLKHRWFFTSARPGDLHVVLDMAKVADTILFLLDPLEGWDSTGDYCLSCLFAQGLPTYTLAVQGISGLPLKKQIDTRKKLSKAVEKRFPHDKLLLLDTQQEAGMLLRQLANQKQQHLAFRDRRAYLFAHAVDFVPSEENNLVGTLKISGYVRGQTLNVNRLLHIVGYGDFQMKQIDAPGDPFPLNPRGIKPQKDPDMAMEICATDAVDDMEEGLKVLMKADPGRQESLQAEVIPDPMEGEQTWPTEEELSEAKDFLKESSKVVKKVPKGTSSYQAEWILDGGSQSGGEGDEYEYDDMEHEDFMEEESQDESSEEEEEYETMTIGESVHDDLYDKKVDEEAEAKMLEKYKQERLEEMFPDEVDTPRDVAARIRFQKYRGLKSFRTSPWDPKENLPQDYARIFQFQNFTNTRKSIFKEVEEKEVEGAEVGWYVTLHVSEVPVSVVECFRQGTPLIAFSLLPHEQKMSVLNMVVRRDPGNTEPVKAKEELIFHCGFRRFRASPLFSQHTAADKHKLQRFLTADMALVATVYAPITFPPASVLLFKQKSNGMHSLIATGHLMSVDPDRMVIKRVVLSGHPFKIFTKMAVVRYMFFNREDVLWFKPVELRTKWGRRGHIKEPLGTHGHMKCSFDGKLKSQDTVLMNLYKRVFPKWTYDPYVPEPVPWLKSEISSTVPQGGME
UniProt P10599: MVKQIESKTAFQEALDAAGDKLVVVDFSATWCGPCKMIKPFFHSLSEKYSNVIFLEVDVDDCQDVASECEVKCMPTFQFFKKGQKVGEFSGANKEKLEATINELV
UniProt Q8NBM4: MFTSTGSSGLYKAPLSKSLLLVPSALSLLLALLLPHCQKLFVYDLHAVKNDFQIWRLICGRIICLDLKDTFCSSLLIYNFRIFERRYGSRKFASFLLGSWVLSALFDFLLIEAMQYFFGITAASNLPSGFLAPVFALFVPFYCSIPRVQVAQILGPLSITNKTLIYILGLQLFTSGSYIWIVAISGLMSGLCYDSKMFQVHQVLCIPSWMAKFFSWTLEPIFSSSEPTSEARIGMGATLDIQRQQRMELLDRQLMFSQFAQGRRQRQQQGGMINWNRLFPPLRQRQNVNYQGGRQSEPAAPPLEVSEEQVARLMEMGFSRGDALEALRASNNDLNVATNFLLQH
UniProt Q9BRA2: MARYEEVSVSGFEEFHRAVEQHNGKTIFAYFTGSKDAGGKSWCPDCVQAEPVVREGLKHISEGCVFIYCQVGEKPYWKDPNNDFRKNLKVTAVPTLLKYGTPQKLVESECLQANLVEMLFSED
UniProt Q9NPD8: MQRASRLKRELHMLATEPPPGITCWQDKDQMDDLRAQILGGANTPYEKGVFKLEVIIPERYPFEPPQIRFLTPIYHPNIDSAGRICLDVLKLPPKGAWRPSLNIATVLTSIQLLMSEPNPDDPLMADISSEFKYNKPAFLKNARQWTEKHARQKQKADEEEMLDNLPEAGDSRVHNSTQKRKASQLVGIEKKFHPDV
UniProt Q96ET8: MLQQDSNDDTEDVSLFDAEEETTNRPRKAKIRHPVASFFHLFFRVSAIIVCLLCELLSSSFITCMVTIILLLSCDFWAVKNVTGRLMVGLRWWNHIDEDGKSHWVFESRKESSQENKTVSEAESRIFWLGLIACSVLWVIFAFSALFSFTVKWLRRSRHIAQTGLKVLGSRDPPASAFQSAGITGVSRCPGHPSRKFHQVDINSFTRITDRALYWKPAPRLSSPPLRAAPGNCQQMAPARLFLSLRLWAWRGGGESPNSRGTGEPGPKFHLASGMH
UniProt P0DPH7, whole entry, looked up: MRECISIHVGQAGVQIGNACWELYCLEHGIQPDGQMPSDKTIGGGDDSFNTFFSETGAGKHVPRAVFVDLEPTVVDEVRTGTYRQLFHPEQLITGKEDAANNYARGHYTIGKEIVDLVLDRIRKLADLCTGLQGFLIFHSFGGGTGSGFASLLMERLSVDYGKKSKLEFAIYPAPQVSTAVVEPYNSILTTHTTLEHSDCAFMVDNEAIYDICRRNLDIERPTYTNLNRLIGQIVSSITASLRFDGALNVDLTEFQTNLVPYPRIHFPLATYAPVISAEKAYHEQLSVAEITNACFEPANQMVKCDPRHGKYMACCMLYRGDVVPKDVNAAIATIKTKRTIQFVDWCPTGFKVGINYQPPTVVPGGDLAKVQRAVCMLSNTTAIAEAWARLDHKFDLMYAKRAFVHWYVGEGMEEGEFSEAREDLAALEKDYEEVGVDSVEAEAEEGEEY
UniProt Q9UJK0: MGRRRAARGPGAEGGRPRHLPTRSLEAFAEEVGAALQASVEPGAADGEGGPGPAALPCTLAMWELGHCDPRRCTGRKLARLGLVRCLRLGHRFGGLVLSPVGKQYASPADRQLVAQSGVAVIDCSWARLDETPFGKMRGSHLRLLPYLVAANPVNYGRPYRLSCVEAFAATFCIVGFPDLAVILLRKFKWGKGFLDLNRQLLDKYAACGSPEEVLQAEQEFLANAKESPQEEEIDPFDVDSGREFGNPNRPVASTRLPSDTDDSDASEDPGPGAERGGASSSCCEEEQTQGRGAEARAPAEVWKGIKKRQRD
UniProt P63279, whole entry, looked up: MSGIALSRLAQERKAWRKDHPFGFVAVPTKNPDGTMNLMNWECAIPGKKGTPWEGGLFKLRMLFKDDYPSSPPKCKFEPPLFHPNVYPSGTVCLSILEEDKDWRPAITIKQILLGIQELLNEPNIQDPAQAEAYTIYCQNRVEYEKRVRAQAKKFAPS
UniProt Q16222: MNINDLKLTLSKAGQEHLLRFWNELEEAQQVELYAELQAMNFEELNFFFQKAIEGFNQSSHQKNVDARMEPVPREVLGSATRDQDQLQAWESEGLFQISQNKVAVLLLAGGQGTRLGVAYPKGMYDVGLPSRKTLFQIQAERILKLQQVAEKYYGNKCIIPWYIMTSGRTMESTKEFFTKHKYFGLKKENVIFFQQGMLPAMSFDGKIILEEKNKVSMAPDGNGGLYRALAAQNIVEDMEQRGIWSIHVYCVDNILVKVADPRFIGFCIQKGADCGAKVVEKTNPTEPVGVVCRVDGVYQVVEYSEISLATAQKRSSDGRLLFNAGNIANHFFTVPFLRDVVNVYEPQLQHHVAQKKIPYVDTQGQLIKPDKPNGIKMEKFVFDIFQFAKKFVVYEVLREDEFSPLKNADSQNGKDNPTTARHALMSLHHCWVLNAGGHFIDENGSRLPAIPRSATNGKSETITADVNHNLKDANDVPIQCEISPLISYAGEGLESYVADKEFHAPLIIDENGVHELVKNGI
UniProt Q9BQE3, whole entry, looked up: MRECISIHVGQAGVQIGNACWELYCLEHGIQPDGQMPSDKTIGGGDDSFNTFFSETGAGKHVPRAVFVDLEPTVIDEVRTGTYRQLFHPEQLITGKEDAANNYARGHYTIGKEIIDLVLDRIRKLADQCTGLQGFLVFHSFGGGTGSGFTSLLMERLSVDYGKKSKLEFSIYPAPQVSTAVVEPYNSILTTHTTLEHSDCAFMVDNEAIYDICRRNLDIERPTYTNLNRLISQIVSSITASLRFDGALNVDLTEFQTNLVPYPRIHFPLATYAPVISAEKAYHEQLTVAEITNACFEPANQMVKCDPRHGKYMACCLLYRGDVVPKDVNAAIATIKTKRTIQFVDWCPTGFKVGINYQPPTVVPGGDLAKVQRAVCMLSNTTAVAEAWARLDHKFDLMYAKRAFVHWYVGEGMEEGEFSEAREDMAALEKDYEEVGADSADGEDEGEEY
UniProt Q9Y5U2: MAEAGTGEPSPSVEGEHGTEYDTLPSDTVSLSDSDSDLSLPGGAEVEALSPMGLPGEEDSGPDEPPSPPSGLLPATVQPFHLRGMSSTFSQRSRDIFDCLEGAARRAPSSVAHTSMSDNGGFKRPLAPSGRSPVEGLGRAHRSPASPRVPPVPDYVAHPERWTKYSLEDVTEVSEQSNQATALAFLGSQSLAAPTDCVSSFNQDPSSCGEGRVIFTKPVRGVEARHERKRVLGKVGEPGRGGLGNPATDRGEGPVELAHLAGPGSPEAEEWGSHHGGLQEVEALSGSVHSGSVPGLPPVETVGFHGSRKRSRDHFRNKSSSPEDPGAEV
UniProt P68363, whole entry, looked up: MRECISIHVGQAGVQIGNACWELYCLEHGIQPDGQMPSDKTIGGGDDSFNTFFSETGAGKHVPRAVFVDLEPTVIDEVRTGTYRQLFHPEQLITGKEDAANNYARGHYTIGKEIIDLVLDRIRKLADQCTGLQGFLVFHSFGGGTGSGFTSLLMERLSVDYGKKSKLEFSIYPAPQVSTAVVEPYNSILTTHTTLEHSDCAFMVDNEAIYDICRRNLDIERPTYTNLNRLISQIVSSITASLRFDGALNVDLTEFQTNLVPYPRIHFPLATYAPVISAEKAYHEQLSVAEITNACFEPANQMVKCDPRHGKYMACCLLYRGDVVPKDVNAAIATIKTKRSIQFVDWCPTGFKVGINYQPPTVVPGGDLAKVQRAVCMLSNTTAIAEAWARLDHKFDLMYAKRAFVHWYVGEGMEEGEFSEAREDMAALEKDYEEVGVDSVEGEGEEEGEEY
UniProt Q86TV6: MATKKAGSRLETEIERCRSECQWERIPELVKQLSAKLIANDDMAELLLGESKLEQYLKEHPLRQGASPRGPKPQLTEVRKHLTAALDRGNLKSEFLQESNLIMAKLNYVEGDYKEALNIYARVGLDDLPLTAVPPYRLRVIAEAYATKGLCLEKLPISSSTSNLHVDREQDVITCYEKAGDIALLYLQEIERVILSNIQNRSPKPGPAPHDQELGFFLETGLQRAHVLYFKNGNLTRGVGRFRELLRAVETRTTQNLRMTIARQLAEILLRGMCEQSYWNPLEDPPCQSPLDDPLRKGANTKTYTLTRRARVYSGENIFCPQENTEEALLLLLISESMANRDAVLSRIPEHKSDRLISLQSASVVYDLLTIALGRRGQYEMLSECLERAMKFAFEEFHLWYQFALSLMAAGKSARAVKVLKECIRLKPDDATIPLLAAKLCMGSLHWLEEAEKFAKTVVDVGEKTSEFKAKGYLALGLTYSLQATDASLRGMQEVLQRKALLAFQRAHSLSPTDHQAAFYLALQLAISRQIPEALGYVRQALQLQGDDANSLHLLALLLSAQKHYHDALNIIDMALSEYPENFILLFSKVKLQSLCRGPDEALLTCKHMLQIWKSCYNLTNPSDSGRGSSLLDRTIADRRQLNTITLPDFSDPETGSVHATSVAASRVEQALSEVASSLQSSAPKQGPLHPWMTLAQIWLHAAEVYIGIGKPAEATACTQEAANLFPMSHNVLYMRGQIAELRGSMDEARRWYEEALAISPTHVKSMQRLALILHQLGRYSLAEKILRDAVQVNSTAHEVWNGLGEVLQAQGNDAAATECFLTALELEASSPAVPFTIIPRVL

compound: c1cn2cc(-c3ccc4cn[nH]c4c3)nc(Nc3ccc(N4CCOCC4)cc3)c2n1 [entospletinib]; experiment: log2 fold change, soluble protein after heating vs DMSO (PISA); higher = thermal stabilisation; K562 cells, 10 uM, 30 min; active = over 0.2 and 3.5 SD of the protein, either way, in both replicates (recomputed)
Procedure, shortened: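 Quantification of soluble protein used TMTpro 16plex LC-MS/MS, with channel sums equalised. Samples were the supernatant after 21,000xg for 90 min of pooled aliquots from K562 cells (2×10^6 cells/mL) treated with 10 μM compound for 30 min, heated for 3 min over 48°C-58°C, and extracted in PBS with 0.5% NP-40 at 4°C. Values, from duplicates, describe thermal stability against control samples on a log2 fold-change scale.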

Row | Target | log2 fold change
1 | UBE2G1 (UniProt P62253) | inactive: 0.02
2 | TTF2 (UniProt Q9UNY4) | inactive: -0.023
3 | UBAC1 (UniProt Q9BSL1) | inactive: 0
4 | TSPAN4 (UniProt O14817) | inactive: 0.022
5 | TTC14 (UniProt Q96N46) | inactive: 0.027
6 | TUBB4A (UniProt P04350) | inactive: 0.007
7 | TSR1 (UniProt Q2NL82) | inactive: -0.056
8 | TXN (UniProt P10599) | inactive: 0.003
9 | UBAC2 (UniProt Q8NBM4) | inactive: 0.107
10 | TXNDC17 (UniProt Q9BRA2) | inactive: 0.018
11 | UBE2D3 isoform 3 (UniProt P61077) | inactive: 0.018
12 | UBE2T (UniProt Q9NPD8) | inactive: 0.021
13 | TXNDC16 (UniProt Q9P2K2) | inactive: -0.168
14 | TVP23C (UniProt Q96ET8) | active: 0.419
15 | TXLNG (UniProt Q9NUQ3) | inactive: -0.047
16 | TUBA3C (UniProt P0DPH7) | inactive: -0.029
17 | TSR3 (UniProt Q9UJK0) | inactive: 0.028

Row | Target | log2 fold change
18 | UBE2I (UniProt P63279) | inactive: 0.066
19 | UAP1 (UniProt Q16222) | inactive: 0.026
20 | TXNDC15 (UniProt Q96J42) | inactive: -0.011
21 | TUBE1 (UniProt Q9UJT0) | inactive: -0.007
22 | UBE3A (UniProt Q05086) | inactive: 0.003
23 | UBE2L5, A0A1B0GUS4 | inactive: -0.057
24 | TXLNA (UniProt P40222) | inactive: -0.01
25 | UBE2NL (UniProt Q5JXB2) | inactive: -0.062
26 | TXNDC5 (UniProt Q8NBS9) | inactive: 0.002
27 | TUBA1C (UniProt Q9BQE3) | inactive: 0.02
28 | TUBGCP4 (UniProt Q9UGJ1) | inactive: 0.307
29 | TSSC4 (UniProt Q9Y5U2) | inactive: 0.006
30 | TUBA1B (UniProt P68363) | inactive: -0.037
31 | TTC7B isoform 2 (UniProt Q86TV6) | inactive: 0.038
32 | UAP1L1 (UniProt Q3KQV9) | inactive: 0.034
33 | TTC1 (UniProt Q99614) | inactive: 0.036
34 | TSPAN3 (UniProt O60637) | inactive: -0.004

Part of the list above, as labelled records:
UBE3A (UniProt Q05086)
  log2 fold change: inactive: 0.003
UBE2L5, A0A1B0GUS4
  log2 fold change: inactive: -0.057
